PubChem BioAssay AID1259254 – NCATS – 2017
The whole screen tested about 59,000 reagents; shown is an unselected part. In the full data, about 1,550 (2.6%) are marked active. 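G2 share is only a proxy for re-replication; each gene was hit by three separate siRNAs, and active genes were retested.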 The raw values are shown without normalisation. Reagent sequences are not shown. Not given: the amount of reagent.

Aim: 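Finding genes that stop cells copying their DNA twice in one cycle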 (primary screen)
Cells: human HCT116 colorectal cancer cells
Knock-down reagent: single siRNA against human genes
Duration: 3 days
Read-out: 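Nuclei stained with Hoechst and imaged; cell-cycle phase assigned by DNA content; G2 share scaled per plate, non-targeting siRNA 0%, GMNN siRNA 100%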
Reading the numbers: G2 robust z-score and G2 cells, % of GMNN control: higher = more G2 cells, more excess DNA replication; raw share of cells in G2: higher = larger share of cells with G2 DNA content
Rule for the call: 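An siRNA counts as active if its G2 robust z-score lies at least 5 MADs above the screen median; here such calls match roughly 38% of GMNN control or more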

| Gene | PubChem SID | G2 robust z-score | G2 cells, % of GMNN control | raw share of cells in G2 (%) | call |
| --- | --- | --- | --- | --- | --- |
| OR4A5 | SID160750710 | 0.0323 | 3.19 | 5.77 | inactive |
| OR4A5 | SID160750712 | 0.316 | 5.19 | 6.57 | inactive |
| OR4A5 | SID160750713 | 0.543 | 6.79 | 4.23 | inactive |
| CPB1 | SID160730612 | 0.88 | 9.16 | 8.75 | inactive |
| CPB1 | SID160747312 | 0.158 | 4.08 | 6.35 | inactive |
| CPB1 | SID160747322 | -0.541 | -0.841 | 3.6 | inactive |
| PDCD5 | SID160721576 | 0.391 | 5.72 | 7.67 | inactive |
| PDCD5 | SID160721577 | 1.17 | 11.2 | 8.33 | inactive |
| PDCD5 | SID160721578 | -0.737 | -2.22 | 2.56 | inactive |
| DGKQ | SID160752464 | 2.41 | 19.9 | 12.2 | inactive |
| DGKQ | SID160752474 | -0.0245 | 2.79 | 6.35 | inactive |
| DGKQ | SID160752485 | -0.66 | -1.67 | 3.43 | inactive |
| MIR22HG | SID160735133 | -0.204 | 1.54 | 3.41 | inactive |
| MIR22HG | SID160753082 | -0.695 | -1.92 | 3.27 | inactive |
| MIR22HG | SID160753083 | -0.4 | 0.152 | 3.05 | inactive |
| KRCC1 | SID160733499 | 0.0854 | 3.57 | 4.37 | inactive |
| KRCC1 | SID160740590 | -1.14 | -5.08 | 1.78 | inactive |
| KRCC1 | SID160740591 | -0.203 | 1.54 | 4.92 | inactive |
| HDAC2 | SID160774892 | -0.123 | 2.1 | 4.97 | inactive |
| HDAC2 | SID160774893 | 5.25 | 39.9 | 20.9 | active |
| HDAC2 | SID160774894 | -0.553 | -0.926 | 4.71 | inactive |
| CRACR2A | SID160752686 | 2.27 | 18.9 | 11.8 | inactive |
| CRACR2A | SID160752687 | -0.646 | -1.58 | 4.77 | inactive |
| CRACR2A | SID160752688 | 0.27 | 4.86 | 5.96 | inactive |
| QTRT1 | SID160751059 | 6.26 | 47 | 22.2 | active |
| QTRT1 | SID160751060 | -0.823 | -2.82 | 4.25 | inactive |
| QTRT1 | SID160751061 | -0.783 | -2.54 | 3.27 | inactive |
| MYBPC3 | SID160777622 | -1.16 | -5.21 | 3.35 | inactive |
| MYBPC3 | SID160777623 | -0.339 | 0.582 | 5.7 | inactive |
| MYBPC3 | SID160777624 | 0.111 | 3.75 | 4.43 | inactive |
| ZNF256 | SID160726490 | -1.26 | -5.93 | 1.55 | inactive |
| ZNF256 | SID160726498 | -0.559 | -0.966 | 5.56 | inactive |
| ZNF256 | SID160726504 | -0.239 | 1.29 | 3.88 | inactive |
| OLFM2 | SID160754445 | -0.976 | -3.9 | 2.43 | inactive |
| OLFM2 | SID160754446 | -0.522 | -0.702 | 2.78 | inactive |
| OLFM2 | SID160754447 | 0.959 | 9.72 | 6 | inactive |
| MRGPRG | SID160725169 | 0.0604 | 3.39 | 5.56 | inactive |
| MRGPRG | SID160733174 | 1.81 | 15.7 | 8.73 | inactive |
| MRGPRG | SID160733175 | 0.765 | 8.35 | 6.4 | inactive |
| ZDHHC11B | SID160726365 | 2.6 | 21.3 | 9.09 | inactive |
| ZDHHC11B | SID160770919 | 0.207 | 4.42 | 5.25 | inactive |
| ZDHHC11B | SID160770920 | 5.7 | 43.1 | 19.1 | active |
| RPS15AP9 | SID160768091 | -0.73 | -2.17 | 2.79 | inactive |
| RPS15AP9 | SID160768092 | 0.241 | 4.66 | 5.19 | inactive |
| RPS15AP9 | SID160768093 | -1.17 | -5.26 | 1.33 | inactive |
| E2F3 | SID160757594 | -0.791 | -2.6 | 2.73 | inactive |
| E2F3 | SID160757604 | -1.04 | -4.34 | 3.66 | inactive |
| E2F3 | SID160757615 | -1.05 | -4.41 | 3.59 | inactive |

Only “raw share of cells in G2 (%)” (3 entries from above):
MYBPC3 [SID160777622] = 3.35
MYBPC3 [SID160777623] = 5.7
MYBPC3 [SID160777624] = 4.43
